Experimental data reported in PubChem BioAssay AID540276 (National Center for Advancing Translational Sciences (NCATS), 2011).
The campaign covered roughly 300,000 compounds. About 5,400 (1.8%) were called active. The shares of active, inactive and inconclusive entries below differ from those in the screen. Calls come from the whole dose curve; tested in HEK293 cells. Potencies beside an inconclusive call are fits to weak or partial responses and may not hold up.

assay: qHTS for inhibitors of binding or entry into cells for Marburg Virus; conditions: Marburg virus pseudotyped entry inhibition, cell reporter; activity change, negative = inhibition: at 37.8 µM (top of the series) unless noted
% is set by controls: 0 for no effect and ±100 for the full control effect; potency is the fitted concentration of half-maximal effect.

| Structure (SMILES) | activity change, negative = inhibition | Potency |
| --- | --- | --- |
| O=C(c1ccc2c(c1)N(Cc1ccccc1)C(=O)CS2)N1CCOCC1 | inactive: -0.421% |  |
| Cc1ccccc1-c1nnc(CN2CCN(c3cccc(C)c3C)CC2)o1 | inactive: 6.65% [at 46.1 µM] |  |
| Cc1cccc(NC(=S)NCc2ccco2)c1C |  | inconclusive: 6.31 µM [activator, partial curve, poor fit] |
| CN(C(=O)c1ccc2ccccc2c1)c1ccccn1 | inactive: -0.267% [at 46.1 µM] |  |
| Cc1ccccc1N1C(=O)C(Oc2ccc(Cl)cc2)C1CNCCCOC(C)C (stereo not given) |  | inconclusive: 29.1 µM [inhibitor, single point] |
| Cc1cc(N2CCN(c3cccc(C(F)(F)F)c3)CC2)n2ncnc2n1 | inactive: -26.8% |  |
| CC(=O)c1cccc(NC(=O)CSC(=O)c2ccccc2)c1 |  | inconclusive: 11.2 µM [inhibitor, single point] |
| N#C/C(=C/c1ccc(C(=O)O)cc1)C(=O)Nc1ccccc1 |  | inconclusive: 0.891 µM [activator, full curve, poor fit] |
| Cc1ccc(/C(O)=C2\C(=O)C(=O)N(CC(C)O)C2c2ccc(N(C)C)cc2)cc1 (stereo not given) |  | inconclusive: 7.08 µM [inhibitor, partial curve, poor fit] |
| CN(C)CC(=O)Nc1ccc(S(N)(=O)=O)cc1 |  | inconclusive: 0.103 µM [inhibitor, full curve, poor fit] |
| FC(F)(F)c1nc(-c2cccs2)ncc1-c1nnnn1-c1ccc(Cl)cc1 |  | inconclusive: 25.9 µM [inhibitor, partial curve, poor fit] |
| c1ccc(-c2nc(N3CCOCC3)c3ccccc3n2)nc1 |  | inconclusive: 10 µM [inhibitor, partial curve, poor fit] |
| COc1ccc(N(C(=O)c2cccc(OC)c2OC)C2C=CS(=O)(=O)C2)cc1 (stereo not given) | inactive: 1.11% |  |
| CCCCC(CC)CNC(=O)c1ccc2c(=O)n(CCOC)c(=O)[nH]c2c1 (stereo not given) |  | active: 2.82 µM |
| COc1ccc(NC(=O)C2CCN(c3cc(C)nc(-c4ccccc4)n3)CC2)cc1 |  | inconclusive: 35.5 µM [inhibitor, single point] |
| O=C(Nc1ccccc1)c1ccc2snnc2c1 | inactive: 5.54% [at 46.1 µM] |  |
| COc1ccc(/C=C2\SC(=S)N(CCCC(=O)N3CCOCC3)C2=O)cc1 |  | inconclusive: 12.6 µM [inhibitor, partial curve, poor fit] |
| CCCCC(c1nnnn1Cc1ccco1)N1CCN(c2nc3ccccc3s2)CC1 (stereo not given) |  | inconclusive: 35.5 µM [inhibitor, partial curve, poor fit] |
| Nc1cc2sc(-c3ccc(C(=O)O)cc3)nc2cc1Cl |  | active: 13 µM |
| CCOc1ccc(C(=O)CSc2nnc3cc(C)c4ccccc4n23)cc1 | inactive: 26.8% [at 46.1 µM] |  |

Taken from above.
For Potency, `c1ccc(-c2nc(N3CCOCC3)c3ccccc3n2)nc1` is entered as inconclusive: 10 µM [inhibitor, partial curve, poor fit]
For activity change, negative = inhibition, `O=C(c1ccc2c(c1)N(Cc1ccccc1)C(=O)CS2)N1CCOCC1` is entered as inactive: -0.421%
